# Laboratory results from the supplement of paper PMC5949888.
# Most values lie at the floor of the assay. Slopes are relative: functional sequences can read slightly below zero.
# Test system: Saccharomyces cerevisiae PS128 hsf1 delta, HSF1(1-493) fusion
# Experiment: growth estimate (transactivation domain function in HSF1 fusion, heat-shock survival) (a.u. (slope of normalised read count over time)); higher = stronger growth at 37°C, i.e. more transactivation activity
# Conditions: library: random library
row,Substance,growth estimate
1,CRPTAQSRKSSFWLADHICN,< -0.25
2,LHLQTVSDEVLRRRPRVTVY,< -0.25
3,RKMAGRRPHTLYCGEESGWA,< -0.25
4,PGRERSNLRML,< -0.25
5,RLDDDVKNHGSFRSPVS,< -0.25
6,GYGDPDVEIEFRAPRKYLFT,< -0.25
7,RYVLNGGSHVPSVARNALAP,< -0.25
8,QVEKCLVQQFFWNR,< -0.25
9,VSLVSAGGRLQRRGAYRDVL,< -0.25
10,ARRNQ,< -0.25
11,RAVWG,< -0.25
12,RLARVES,< -0.25
13,NELFLDAIGTAGHGLVSLVG,< -0.25
14,WSLPWDNS,< -0.25
15,GHLIDLKDPRRARATQKRRR,< -0.25
16,YTFIRTTYCTFGFV,< -0.25
17,HEVFCCIAVPDVRPVQ,< -0.25
18,YIVIVIESLALVSSRLSQRN,-0.246
19,PSSEGSSPLTGDS,< -0.25
20,RTHLMSGYQIRYCPHNEVAP,-0.228
21,YRGECILGHYAVNCRASGQE,< -0.25
22,CREQVYSYDGVNFRGAWI,-0.212
23,QMMRHKVATQ,< -0.25
24,TELTRAKGYVQEGVHLP,-0.0851
25,SYDLGKGQSRGGCGVGLVMS,< -0.25

row,Substance,growth estimate
1,DLFRDQRSCSRCVVRCFSRR,< -0.25
2,TVHLAVGVTLVKQLRARTGP,-0.248
3,PLGLKFR,< -0.25
4,DIWCL,-0.151
5,VRGDTPRALAIERNRSDARS,< -0.25
6,TCGQFPQDSLVSDLAA,< -0.25
7,EGSKAEGHWLLFKQREGSTP,< -0.25
8,FGTVASRLDLEIMELGLDNT,< -0.25
9,MPGRSTAGSY,< -0.25
10,SFNR,< -0.25
11,DEAGRPNVNSEAQFCSEGCQ,< -0.25
12,LQPPSVRRQLVCSEGLGRLR,< -0.25
13,TRQEPDSGRTQGGKF,< -0.25
14,RIMVAAYQLAVRQPKL,< -0.25
15,GVVVLARTAKKSRHVLHSKG,< -0.25
16,GSH,< -0.25
17,VGIGLIELGQSVRVRFTRVM,< -0.25
18,FTRKRFHLATPCGAGKSYT,< -0.25
19,DMNVRGE,-0.193
20,AKHVSPDRILGEYCTSSKRI,< -0.25
21,ASHARWGLNITECGYGQLMV,< -0.25
22,PLG,< -0.25
23,NLR,< -0.25
24,YWELLAVRGKGSQSWAYVLP,< -0.25
25,LKVDWL,< -0.25

# In another format: results already given.
row	Substance	growth estimate
20	RTHLMSGYQIRYCPHNEVAP	-0.228
21	YRGECILGHYAVNCRASGQE	< -0.25
22	CREQVYSYDGVNFRGAWI	-0.212
23	QMMRHKVATQ	< -0.25
24	TELTRAKGYVQEGVHLP	-0.0851
25	SYDLGKGQSRGGCGVGLVMS	< -0.25
1	DLFRDQRSCSRCVVRCFSRR	< -0.25
2	TVHLAVGVTLVKQLRARTGP	-0.248
3	PLGLKFR	< -0.25
4	DIWCL	-0.151
5	VRGDTPRALAIERNRSDARS	< -0.25
6	TCGQFPQDSLVSDLAA	< -0.25
7	EGSKAEGHWLLFKQREGSTP	< -0.25
8	FGTVASRLDLEIMELGLDNT	< -0.25
9	MPGRSTAGSY	< -0.25
10	SFNR	< -0.25
11	DEAGRPNVNSEAQFCSEGCQ	< -0.25
12	LQPPSVRRQLVCSEGLGRLR	< -0.25
13	TRQEPDSGRTQGGKF	< -0.25
14	RIMVAAYQLAVRQPKL	< -0.25
15	GVVVLARTAKKSRHVLHSKG	< -0.25
16	GSH	< -0.25
17	VGIGLIELGQSVRVRFTRVM	< -0.25
18	FTRKRFHLATPCGAGKSYT	< -0.25
19	DMNVRGE	-0.193
20	AKHVSPDRILGEYCTSSKRI	< -0.25
21	ASHARWGLNITECGYGQLMV	< -0.25
22	PLG	< -0.25
23	NLR	< -0.25

# More results follow.

row,Substance,growth estimate
1,YTHWSRVNAG,< -0.25
2,SKSSSYHEWVDWKWGTVLKL,< -0.25
3,MGFSPSFDLLSVLTLPLMSV,< -0.25
4,KLSLKVQFSTVESLFAPKWS,< -0.25
5,LRDQCNFIFWPSGQIRA,< -0.25
6,YKDS,< -0.25
7,ETILRDGSWHTLFFPKTFYV,-0.245
8,VVNTQHSGVN,< -0.25
9,LALIRRSITA,< -0.25
10,LKRDNAPVYRGHRCETGIGP,< -0.25
11,HVLECAGSTIR,-0.243
12,SCASGAALVLAGPAIYSWLG,< -0.25
13,ITHGAAPFRIMGFNIYLQTL,< -0.25
14,LNEGCTCTQGPVPAGGVYVS,< -0.25
15,GGIVPASNEAKVASYQGRGG,< -0.25
16,GYT,< -0.25
17,GCIRSEGDPLGSANCGRVLA,< -0.25
18,ICDGLIGVLVGTTIATRS,< -0.25
19,CLASRSRRYVCQAHLRSLGG,< -0.25
20,SCRVRNQGHG,< -0.25
21,FRLFLSGLTRDKYRNVRISR,< -0.25
22,VPPLRIRPLIIRAVIRGGYI,-0.203
23,NASQRKSREFRSCAG,< -0.25
24,KLVVLPTFPALMEGFFYHRT,< -0.25
25,GVLSWRTQDRGIAFRSVSYA,< -0.25

row,Substance,growth estimate
1,PEGV,< -0.25
2,FARLYHTSLLRRAVPVLTKR,< -0.25
3,GRYRVNTSCGG,< -0.25
4,SSSDVILGREVMFKGERMPP,< -0.25
5,PGAHILIG,< -0.25
6,CGDLQRLAYSQGMTGWWEAQ,< -0.25
7,LWNLCP,< -0.25
8,RAIS,< -0.25
9,DAGTRTSPT,< -0.25
10,AARLPHSDSRLPVQSSGIGG,< -0.25
11,ESTLTREMAPGGRPRLVVLL,< -0.25
12,EDLRTLPLMWPMTGCPSARL,-0.243
13,GTHGVLVSCNRVL,< -0.25
14,QSLDPLTCYCNLTESARV,< -0.25
15,LPGAAWSRNSRTCSPGLSRV,< -0.25
16,CSLQA,< -0.25
17,VFTVVRSTVSSAAHVDVQPA,< -0.25
18,GDKFYQSSGVFNRG,< -0.25
19,PRVRRSCLGEEGHGTSSKWK,< -0.25
20,YTEAQPPTNLIPLSLRPGKP,< -0.25
21,YRLPIHY,< -0.25
22,IECVLTQMHPLGRLICGARL,< -0.25
23,NIPWVYSQDPPISMHHSAII,< -0.25
24,WKQVHPTVLEGRVTTYVDEG,< -0.25
25,VSRGLAFGLRLTTASSFHFH,-0.0602
